# Reference: the supplement of paper PMC8728848
# The other results are listed elsewhere or left out.
# B1: SRS2 (Toxoplasma gondii), O15695 (protein)
# chain: MATRASLARQKTGAACLAVLTASPSVVAAKPWKRWVGVSVILASAFAVGVSAGPPYRYEPEKFTCRPKKGILSQWVSLLYQVQHNITFACEEATPVPTTLISEEHGLMVCAENMTPEECEANPAPLSAFLPGATKEWVTGDSVLTGLKISVPESQYPANAKSFRVGCRHNTKTGNTCMLTIHVEPRDPAVERQEARCSYTENSTLPKIFVTKDSNTMTLACGPHGAPMPESYTENYCSTPDTCDEKPFTSVIPGYLSKWFFGDPKSPLGARVRIPPEQIPSSPQINYFGCTGPTEGEGPKYNCTVPVPLGGGDPSEGSRPGGGSGGGKRGGGQGGGGSLAGFDFRQGSARHSLPSRMALSASALLAMTALAY
# Tests used:
# Assay in all cases: glycan array binding signal (z-score within array); higher = stronger binding
# Conditions in all cases: glycan notation: IUPAC condensed, linker removed
# [1] = target: GalNAc(b1-3)Gal(a1-4)Gal(b1-4)GlcNAc
# How it was run: (§1)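 The binding signal is a Z-score computed within each array. Data were drawn from 3228 arrays in the Consortium for Functional Glycomics database, restricted to those with a known protein sequence. Scores were averaged over arrays of the same protein sequence at different concentrations or buffers, and over linkers, and negative values can be taken as non-binding.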
# [2] = target: GalNAc(b1-3)Gal(a1-4)Gal(b1-4)GlcNAc(b1-3)Gal(b1-4)Glc
# How it was run: as §1
# [3] = target: GalNAc(b1-3)Gal(a1-6)Gal(b1-4)Glc
# How it was run: as §1
# [4] = target: GalNAc(b1-3)GalNAc
# How it was run: as §1
# [5] = target: GalNAc(b1-4)GlcNAc
# How it was run: as §1
# [6] = target: GalNAc(b1-4)GlcNAc(b1-2)Man(a1-3)[GalNAc(b1-4)GlcNAc(b1-2)Man(a1-6)]Man(b1-4)GlcNAc(b1-4)GlcNAc
# How it was run: as §1
# [7] = target: Glc(a1-4)Glc
# How it was run: as §1
# [8] = target: Glc(a1-6)Glc(a1-6)Glc
# How it was run: as §1
# [9] = target: Glc(b1-4)Glc
# How it was run: as §1
# [10] = target: Glc(b1-6)Glc
# How it was run: as §1
# [11] = target: GlcA(b1-3)Gal
# How it was run: as §1
# [12] = target: GlcA(b1-3)GlcNAc
# How it was run: as §1
# [13] = target: GlcA(b1-6)Gal
# How it was run: as §1
# [14] = target: GlcNAc(a1-3)Gal(b1-4)GlcNAc
# How it was run: as §1
# [15] = target: GlcNAc(a1-4)Gal(b1-3)GlcNAc
# How it was run: as §1
# [16] = target: GlcNAc(a1-4)Gal(b1-4)GalNAc
# How it was run: as §1
# [17] = target: GlcNAc(a1-4)Gal(b1-4)GlcNAc
# How it was run: as §1
# [18] = target: GlcNAc(a1-4)Gal(b1-4)GlcNAc(b1-3)Gal(b1-4)Glc
# How it was run: as §1
# [19] = target: GlcNAc(a1-4)Gal(b1-4)GlcNAc(b1-3)Gal(b1-4)GlcNAc
# How it was run: as §1
# [20] = target: GlcNAc(a1-4)Gal(b1-4)GlcNAc(b1-3)Gal(b1-4)GlcNAc(b1-3)Gal(b1-4)GlcNAc
# How it was run: as §1
# [21] = target: GlcNAc(a1-4)Gal(b1-4)GlcNAc(b1-3)Gal(b1-4)[Fuc(a1-3)]GlcNAc(b1-3)Gal(b1-4)[Fuc(a1-3)]GlcNAc
# How it was run: as §1
# [22] = target: GlcNAc(a1-6)Gal(b1-4)GlcNAc
# How it was run: as §1
# [23] = target: GlcNAc(b1-2)Gal(b1-3)GalNAc
# How it was run: as §1
# [24] = target: GlcNAc(b1-2)Man(a1-3)[GlcNAc(b1-2)Man(a1-6)]Man(b1-4)GlcNAc(b1-4)GlcNAc
# How it was run: as §1
# [25] = target: GlcNAc(b1-2)Man(a1-3)[GlcNAc(b1-2)Man(a1-6)]Man(b1-4)GlcNAc(b1-4)[Fuc(a1-6)]GlcNAc
# How it was run: as §1
# [26] = target: GlcNAc(b1-2)[GlcNAc(b1-4)]Man(a1-3)[GlcNAc(b1-2)Man(a1-6)]Man(b1-4)GlcNAc(b1-4)GlcNAc
# How it was run: as §1
# [27] = target: GlcNAc(b1-3)Gal
# How it was run: as §1
# [28] = target: GlcNAc(b1-3)Gal(b1-3)GalNAc
# How it was run: as §1
# [29] = target: GlcNAc(b1-3)Gal(b1-4)Glc
# How it was run: as §1
# [30] = target: GlcNAc(b1-3)Gal(b1-4)GlcNAc
# How it was run: as §1
# [31] = target: GlcNAc(b1-3)Gal(b1-4)GlcNAc(b1-3)Gal(b1-4)GlcNAc
# How it was run: as §1
# [32] = target: GlcNAc(b1-3)GalNAc
# How it was run: as §1
# [33] = target: GlcNAc(b1-3)Man
# How it was run: as §1
# [34] = target: GlcNAc(b1-3)[GlcNAc(b1-4)][GlcNAc(b1-6)]GlcNAc
# How it was run: as §1
# [35] = target: GlcNAc(b1-3)[GlcNAc(b1-6)]Gal(b1-4)GlcNAc
# How it was run: as §1
# [36] = target: GlcNAc(b1-3)[GlcNAc(b1-6)]GalNAc
# How it was run: as §1
# [37] = target: GlcNAc(b1-4)Gal(b1-4)GlcNAc
# How it was run: as §1
binder,measurement,setting,value
B1,glycan array binding signal (z-score),[1],-0.172
same,glycan array binding signal (z-score),[2],-0.134
same,glycan array binding signal (z-score),[3],-0.675
same,glycan array binding signal (z-score),[4],0.471
same,glycan array binding signal (z-score),[5],-0.148
same,glycan array binding signal (z-score),[6],0.894
same,glycan array binding signal (z-score),[7],-0.767
same,glycan array binding signal (z-score),[8],-0.82
same,glycan array binding signal (z-score),[9],0.048
same,glycan array binding signal (z-score),[10],-0.375
same,glycan array binding signal (z-score),[11],-0.149
same,glycan array binding signal (z-score),[12],-0.187
same,glycan array binding signal (z-score),[13],0.072
same,glycan array binding signal (z-score),[14],-0.96
same,glycan array binding signal (z-score),[15],-0.995
same,glycan array binding signal (z-score),[16],-0.448
same,glycan array binding signal (z-score),[17],-0.377
same,glycan array binding signal (z-score),[18],-0.592
same,glycan array binding signal (z-score),[19],-0.751
same,glycan array binding signal (z-score),[20],-0.61
same,glycan array binding signal (z-score),[21],2.07
same,glycan array binding signal (z-score),[22],-0.634
same,glycan array binding signal (z-score),[23],-0.491
same,glycan array binding signal (z-score),[24],-0.439
same,glycan array binding signal (z-score),[25],14.3
same,glycan array binding signal (z-score),[26],-0.011
same,glycan array binding signal (z-score),[27],-0.133
same,glycan array binding signal (z-score),[28],-0.462
same,glycan array binding signal (z-score),[29],-0.449
same,glycan array binding signal (z-score),[30],-0.083
same,glycan array binding signal (z-score),[31],-0.623
same,glycan array binding signal (z-score),[32],-0.462
same,glycan array binding signal (z-score),[33],1.2
same,glycan array binding signal (z-score),[34],-0.157
same,glycan array binding signal (z-score),[35],-0.333
same,glycan array binding signal (z-score),[36],-1.03
same,glycan array binding signal (z-score),[37],-0.247

# 9 consecutive entries from above, for reference:
binder,measurement,setting,value
B1,glycan array binding signal (z-score),[23],-0.491
same,glycan array binding signal (z-score),[24],-0.439
same,glycan array binding signal (z-score),[25],14.3
same,glycan array binding signal (z-score),[26],-0.011
same,glycan array binding signal (z-score),[27],-0.133
same,glycan array binding signal (z-score),[28],-0.462
same,glycan array binding signal (z-score),[29],-0.449
same,glycan array binding signal (z-score),[30],-0.083
same,glycan array binding signal (z-score),[31],-0.623
